Experiment: general procedure: Boc solid-phase peptide synthesis; Boc-Cys(BzlOMe)-O-Resin from chloromethylpolystyrene-1%-divinylbenzene resin (1 mmol Cl/g)
Settings: whole synthesis, scale 1.0 mmol, acetate salt

Substance H-YGASDSNVYDLC-OH has an isolated mass of 85 mg.

From patent US4859765 (dated 1989)
